Results taken from paper PMC8242032, “Non-canonical function of DGCR8 in DNA double-strand break repair signaling and tumor radioresistance” (Nature Communications, 2021).
Results are given in words; binding and its absence hold for the method and conditions named. In cells and extracts the contact can be indirect. Some binding calls cover weakened binding; strength is not graded here. Sequences can lack the tags named with a protein.

Tests used:
Assay in all cases: pull-down; SFB-tagged DUBs individually co-transfected with MYC-DGCR8 into HEK293T cells; pulldown with S-protein beads, 4 °C, 2 h; immunoblotting for FLAG and MYC; screen and confirmatory pulldown
SFB-USP36 (human) = biological target: T1, SFB-USP36 (human) (UniProt Q9P275)
T1 sequence: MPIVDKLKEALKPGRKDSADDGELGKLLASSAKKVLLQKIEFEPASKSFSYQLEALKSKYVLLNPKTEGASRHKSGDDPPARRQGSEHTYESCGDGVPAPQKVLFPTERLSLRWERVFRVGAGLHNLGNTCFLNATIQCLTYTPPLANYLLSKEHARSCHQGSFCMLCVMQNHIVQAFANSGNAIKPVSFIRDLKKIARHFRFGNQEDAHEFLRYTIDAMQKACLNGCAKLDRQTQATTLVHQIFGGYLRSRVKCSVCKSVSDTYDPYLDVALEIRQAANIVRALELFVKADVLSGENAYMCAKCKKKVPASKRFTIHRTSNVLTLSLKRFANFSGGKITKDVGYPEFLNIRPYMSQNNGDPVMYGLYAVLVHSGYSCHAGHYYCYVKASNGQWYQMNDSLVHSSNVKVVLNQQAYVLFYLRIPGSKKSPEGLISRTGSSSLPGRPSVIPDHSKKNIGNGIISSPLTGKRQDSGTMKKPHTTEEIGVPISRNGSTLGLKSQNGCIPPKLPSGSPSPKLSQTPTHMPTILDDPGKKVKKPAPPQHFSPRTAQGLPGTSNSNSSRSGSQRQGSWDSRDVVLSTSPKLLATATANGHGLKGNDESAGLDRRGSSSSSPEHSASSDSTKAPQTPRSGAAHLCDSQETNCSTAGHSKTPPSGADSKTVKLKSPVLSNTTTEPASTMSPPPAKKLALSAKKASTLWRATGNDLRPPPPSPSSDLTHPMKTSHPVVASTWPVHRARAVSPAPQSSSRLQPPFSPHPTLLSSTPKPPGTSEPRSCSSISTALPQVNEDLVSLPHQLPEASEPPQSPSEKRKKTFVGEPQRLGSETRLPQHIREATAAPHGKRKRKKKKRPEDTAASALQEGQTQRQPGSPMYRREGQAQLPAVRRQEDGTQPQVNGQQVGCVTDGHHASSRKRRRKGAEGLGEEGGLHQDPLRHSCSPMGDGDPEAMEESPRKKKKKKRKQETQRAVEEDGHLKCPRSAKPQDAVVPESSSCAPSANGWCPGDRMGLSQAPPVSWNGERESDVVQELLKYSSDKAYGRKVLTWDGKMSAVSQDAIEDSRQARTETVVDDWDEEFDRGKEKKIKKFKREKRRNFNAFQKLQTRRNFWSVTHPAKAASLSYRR

SFB-USP39 (human) = biological target: T2, SFB-USP39 (human) (UniProt Q53GS9)
T2 sequence: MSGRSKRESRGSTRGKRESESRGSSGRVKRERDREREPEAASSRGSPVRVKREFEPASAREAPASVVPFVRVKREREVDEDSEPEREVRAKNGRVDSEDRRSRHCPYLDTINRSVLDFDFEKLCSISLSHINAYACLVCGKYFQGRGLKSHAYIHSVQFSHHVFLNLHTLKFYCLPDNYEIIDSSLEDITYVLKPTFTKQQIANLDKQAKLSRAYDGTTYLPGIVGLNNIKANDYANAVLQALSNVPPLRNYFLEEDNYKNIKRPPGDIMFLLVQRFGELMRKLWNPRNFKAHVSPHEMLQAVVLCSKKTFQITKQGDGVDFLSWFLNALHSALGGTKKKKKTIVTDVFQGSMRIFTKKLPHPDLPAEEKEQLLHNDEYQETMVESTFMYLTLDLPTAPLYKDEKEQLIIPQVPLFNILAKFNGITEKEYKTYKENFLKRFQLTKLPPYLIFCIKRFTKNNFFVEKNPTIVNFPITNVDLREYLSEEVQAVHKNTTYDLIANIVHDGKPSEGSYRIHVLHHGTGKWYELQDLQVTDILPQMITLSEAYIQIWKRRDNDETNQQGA

SFB-USP49 (human) = biological target: T3, SFB-USP49 (human) (UniProt Q70CQ1)
T3 sequence: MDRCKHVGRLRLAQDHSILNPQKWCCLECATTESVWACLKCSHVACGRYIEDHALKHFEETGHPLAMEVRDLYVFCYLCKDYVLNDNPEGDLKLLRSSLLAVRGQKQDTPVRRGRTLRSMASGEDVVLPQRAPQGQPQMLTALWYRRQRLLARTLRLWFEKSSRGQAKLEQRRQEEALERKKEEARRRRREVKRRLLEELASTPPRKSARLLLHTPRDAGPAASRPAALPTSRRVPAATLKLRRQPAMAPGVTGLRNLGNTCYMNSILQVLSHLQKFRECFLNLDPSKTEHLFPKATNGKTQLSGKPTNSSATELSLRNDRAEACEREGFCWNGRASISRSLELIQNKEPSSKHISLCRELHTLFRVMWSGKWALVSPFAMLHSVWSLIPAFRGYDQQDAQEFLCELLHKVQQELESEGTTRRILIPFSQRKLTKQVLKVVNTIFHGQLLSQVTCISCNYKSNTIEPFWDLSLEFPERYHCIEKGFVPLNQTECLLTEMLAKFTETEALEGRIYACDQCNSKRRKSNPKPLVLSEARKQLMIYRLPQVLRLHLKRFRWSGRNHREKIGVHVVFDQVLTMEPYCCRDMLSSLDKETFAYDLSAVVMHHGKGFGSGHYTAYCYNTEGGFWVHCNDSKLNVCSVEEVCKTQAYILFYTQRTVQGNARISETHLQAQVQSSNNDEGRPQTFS

binding (SFB-USP36 (human)): binds | binding (SFB-USP39 (human)): binds | binding (SFB-USP49 (human)): binds
B1: MYC-DGCR8 (wild-type, full-length) (protein, UniProt Q8WYQ5 1-773)
chain: METDESPSPLPCGPAGEAVMESRARPFQALPREQSPPPPLQTSSGAEVMDVGSGGDGQSELPAEDPFNFYGASLLSKGSFSKGRLLIDPNCSGHSPRTARHAPAVRKFSPDLKLLKDVKISVSFTESCRSKDRKVLYTGAERDVRAECGLLLSPVSGDVHACPFGGSVGDGVGIGGESADKKDEENELDQEKRVEYAVLDELEDFTDNLELDEEGAGGFTAKAIVQRDRVDEEALNFPYEDDFDNDVDALLEEGLCAPKKRRTEEKYGGDSDHPSDGETSVQPMMTKIKTVLKSRGRPPTEPLPDGWIMTFHNSGVPVYLHRESRVVTWSRPYFLGTGSIRKHDPPLSSIPCLHYKKMKDNEEREQSSDLTPSGDVSPVKPLSRSAELEFPLDEPDSMGADPGPPDEKDPLGAEAAPGALGQVKAKVEVCKDESVDLEEFRSYLEKRFDFEQVTVKKFRTWAERRQFNREMKRKQAESERPILPANQKLITLSVQDAPTKKEFVINPNGKSEVCILHEYMQRVLKVRPVYNFFECENPSEPFGASVTIDGVTYGSGTASSKKLAKNKAARATLEILIPDFVKQTSEEKPKDSEELEYFNHISIEDSRVYELTSKAGLLSPYQILHECLKRNHGMGDTSIKFEVVPGKNQKSEYVMACGKHTVRGWCKNKRVGKQLASQKILQLLHPHVKNWGSLLRMYGRESSKMVKQETSDKSVIELQQYAKKNKPNLHILSKLQEEMKRLAEEREETRKKPKMSIVASAQPGGEPLCTVDV
